# Reference: patent US10906920B2, “Heterocyclic compounds as immunomodulators” (Incyte Corporation, priority 2018, dated 2021)
# For at least one compound, name, drawing or mass did not settle the structure.
# System: U2OS/PD-L1 cells and Jurkat-PD-1-SHP cells
# Test: Src homology region 2 domain-containing phosphatase (SHP) assay
# Assay type: cell-based
# Experimental: Example B. Src Homology Region 2 Domain-Containing Phosphatase (SHP) Assay
# U2OS/PD-L1 cells (DiscoveRx Corporation) were maintained in McCoy's 5A medium with addition of 10% FBS, 0.25 μg/ml Puromycin. After removing the culture media, the cell medium was replaced with assay medium (RPMI1640 medium with 1% FBS). The U2OS/PD-L1 cells were then added in 384-well black clear bottom assay plate (CELLCOAT® Tissue Culture Plates, Greiner Bio-One) at 5000 cells per well in 20 μL assay medium. Test compounds were prepared by serial dilution in DMSO and 125 nL compound were first transferred to the 384 REMP plate well (Thermofisher) by ECHO liquid handler (Labcyte) followed with addition of 27.5 μL assay medium. 5 μL/well compounds in the assay medium were transferred to the cell plate with 0.05% DMSO in the final assay at 0.25 Jurkat-PD-1-SHP cells (DiscoveRx Corporation) were cultured in RPMI1640 medium supplemented with 10% FBS, 250 μg/ml Hygromycin B, 500 μg/ml G418. After the replacement of culture media with assay medium, 5,000 Jurkat-PD-1-SHP cells in 20 μL were dispensed into each well. The assay plate was incubated at 37° C., 5% CO2 for 2 hours before 2.5 μL PathHunter reagent 1 (DiscoveRx Corporation) were added to each well. […] Chemiluminescent signal was recorded with TopCount reader (Perkin Elmer) after incubation at room temperature for 1 hour. […]
structure (smiles),measurement,value
"Cn1c(C(=O)Nc2cccc(-c3cccc(NC(=O)c4nc5c(n4C)CCN(CC(C)(C)C(=O)O)C5)c3Cl)c2Cl)nc2c1CCN(CCC13CCC(C(=O)O)(CC1)C3)C2 [Example 21, 4-(2-(2-((3′-(5-(2-carboxy-2-methylpropyl)-1-methyl-4,5,6,7-tetrahydro-1H-imidazo[4,5-c]pyridine-2-carboxamido)-2,2′-dichloro-[1,1′-biphenyl]-3-yl)carbamoyl)-1-methyl-1,4,6,7-tetrahydro-5H-imidazo[4,5-c]pyridin-5-yl)ethyl)bicyclo[2.2.1]heptane-1-carboxylic acid]",IC50,≤ 10 nM
